# In the supplement of paper PMC11732987, “Enantioselective OTUD7B fragment discovery through chemoproteomics screening and high-throughput optimisation” (Communications Chemistry, 2025):
# Chains of the proteins cited; added tags and fusions are not shown. Lines headed by an entry give the natural chain unless they say otherwise; changes in a name come on top. Residues count along the entry.
# UniProt Q02487, 258-279: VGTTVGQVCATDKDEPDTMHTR
# UniProt Q02487, whole entry, looked up: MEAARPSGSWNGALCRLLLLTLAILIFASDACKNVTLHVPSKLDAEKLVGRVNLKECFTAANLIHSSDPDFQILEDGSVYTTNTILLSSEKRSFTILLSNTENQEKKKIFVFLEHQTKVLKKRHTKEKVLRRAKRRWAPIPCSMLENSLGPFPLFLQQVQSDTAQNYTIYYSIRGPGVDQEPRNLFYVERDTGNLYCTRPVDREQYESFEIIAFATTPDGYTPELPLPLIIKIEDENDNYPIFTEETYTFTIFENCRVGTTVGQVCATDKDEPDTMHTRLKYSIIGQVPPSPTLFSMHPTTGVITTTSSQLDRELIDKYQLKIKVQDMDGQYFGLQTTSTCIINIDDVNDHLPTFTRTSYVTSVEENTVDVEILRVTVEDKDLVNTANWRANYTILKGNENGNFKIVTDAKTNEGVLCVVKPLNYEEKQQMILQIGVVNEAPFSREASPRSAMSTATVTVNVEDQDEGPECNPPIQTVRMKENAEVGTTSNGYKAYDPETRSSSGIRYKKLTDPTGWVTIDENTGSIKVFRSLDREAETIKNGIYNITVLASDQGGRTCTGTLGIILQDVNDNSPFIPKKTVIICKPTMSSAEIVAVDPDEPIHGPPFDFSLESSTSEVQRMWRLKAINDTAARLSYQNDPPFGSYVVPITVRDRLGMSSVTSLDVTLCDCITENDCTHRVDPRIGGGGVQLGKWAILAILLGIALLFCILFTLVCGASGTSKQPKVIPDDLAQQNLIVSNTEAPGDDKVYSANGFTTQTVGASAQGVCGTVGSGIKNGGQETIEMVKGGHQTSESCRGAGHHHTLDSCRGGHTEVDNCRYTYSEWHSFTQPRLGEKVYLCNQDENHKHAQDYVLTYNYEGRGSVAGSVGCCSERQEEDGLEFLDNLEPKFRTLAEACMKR
# UniProt P57772: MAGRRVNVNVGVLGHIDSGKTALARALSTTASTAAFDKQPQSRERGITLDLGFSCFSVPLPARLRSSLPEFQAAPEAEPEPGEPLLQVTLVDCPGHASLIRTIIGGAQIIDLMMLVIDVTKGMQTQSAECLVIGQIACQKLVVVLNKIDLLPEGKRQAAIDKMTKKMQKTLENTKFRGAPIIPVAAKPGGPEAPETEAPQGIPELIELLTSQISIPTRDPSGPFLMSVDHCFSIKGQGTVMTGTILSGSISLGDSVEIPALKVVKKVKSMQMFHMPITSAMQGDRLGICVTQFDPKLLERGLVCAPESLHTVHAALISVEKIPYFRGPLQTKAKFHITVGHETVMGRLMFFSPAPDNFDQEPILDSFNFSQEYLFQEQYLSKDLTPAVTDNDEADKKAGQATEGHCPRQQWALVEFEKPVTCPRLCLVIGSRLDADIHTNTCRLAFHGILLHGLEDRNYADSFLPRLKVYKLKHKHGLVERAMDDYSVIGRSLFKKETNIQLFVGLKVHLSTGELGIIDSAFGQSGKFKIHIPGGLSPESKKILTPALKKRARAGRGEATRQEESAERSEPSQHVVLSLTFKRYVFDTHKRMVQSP
# UniProt Q8NCM8: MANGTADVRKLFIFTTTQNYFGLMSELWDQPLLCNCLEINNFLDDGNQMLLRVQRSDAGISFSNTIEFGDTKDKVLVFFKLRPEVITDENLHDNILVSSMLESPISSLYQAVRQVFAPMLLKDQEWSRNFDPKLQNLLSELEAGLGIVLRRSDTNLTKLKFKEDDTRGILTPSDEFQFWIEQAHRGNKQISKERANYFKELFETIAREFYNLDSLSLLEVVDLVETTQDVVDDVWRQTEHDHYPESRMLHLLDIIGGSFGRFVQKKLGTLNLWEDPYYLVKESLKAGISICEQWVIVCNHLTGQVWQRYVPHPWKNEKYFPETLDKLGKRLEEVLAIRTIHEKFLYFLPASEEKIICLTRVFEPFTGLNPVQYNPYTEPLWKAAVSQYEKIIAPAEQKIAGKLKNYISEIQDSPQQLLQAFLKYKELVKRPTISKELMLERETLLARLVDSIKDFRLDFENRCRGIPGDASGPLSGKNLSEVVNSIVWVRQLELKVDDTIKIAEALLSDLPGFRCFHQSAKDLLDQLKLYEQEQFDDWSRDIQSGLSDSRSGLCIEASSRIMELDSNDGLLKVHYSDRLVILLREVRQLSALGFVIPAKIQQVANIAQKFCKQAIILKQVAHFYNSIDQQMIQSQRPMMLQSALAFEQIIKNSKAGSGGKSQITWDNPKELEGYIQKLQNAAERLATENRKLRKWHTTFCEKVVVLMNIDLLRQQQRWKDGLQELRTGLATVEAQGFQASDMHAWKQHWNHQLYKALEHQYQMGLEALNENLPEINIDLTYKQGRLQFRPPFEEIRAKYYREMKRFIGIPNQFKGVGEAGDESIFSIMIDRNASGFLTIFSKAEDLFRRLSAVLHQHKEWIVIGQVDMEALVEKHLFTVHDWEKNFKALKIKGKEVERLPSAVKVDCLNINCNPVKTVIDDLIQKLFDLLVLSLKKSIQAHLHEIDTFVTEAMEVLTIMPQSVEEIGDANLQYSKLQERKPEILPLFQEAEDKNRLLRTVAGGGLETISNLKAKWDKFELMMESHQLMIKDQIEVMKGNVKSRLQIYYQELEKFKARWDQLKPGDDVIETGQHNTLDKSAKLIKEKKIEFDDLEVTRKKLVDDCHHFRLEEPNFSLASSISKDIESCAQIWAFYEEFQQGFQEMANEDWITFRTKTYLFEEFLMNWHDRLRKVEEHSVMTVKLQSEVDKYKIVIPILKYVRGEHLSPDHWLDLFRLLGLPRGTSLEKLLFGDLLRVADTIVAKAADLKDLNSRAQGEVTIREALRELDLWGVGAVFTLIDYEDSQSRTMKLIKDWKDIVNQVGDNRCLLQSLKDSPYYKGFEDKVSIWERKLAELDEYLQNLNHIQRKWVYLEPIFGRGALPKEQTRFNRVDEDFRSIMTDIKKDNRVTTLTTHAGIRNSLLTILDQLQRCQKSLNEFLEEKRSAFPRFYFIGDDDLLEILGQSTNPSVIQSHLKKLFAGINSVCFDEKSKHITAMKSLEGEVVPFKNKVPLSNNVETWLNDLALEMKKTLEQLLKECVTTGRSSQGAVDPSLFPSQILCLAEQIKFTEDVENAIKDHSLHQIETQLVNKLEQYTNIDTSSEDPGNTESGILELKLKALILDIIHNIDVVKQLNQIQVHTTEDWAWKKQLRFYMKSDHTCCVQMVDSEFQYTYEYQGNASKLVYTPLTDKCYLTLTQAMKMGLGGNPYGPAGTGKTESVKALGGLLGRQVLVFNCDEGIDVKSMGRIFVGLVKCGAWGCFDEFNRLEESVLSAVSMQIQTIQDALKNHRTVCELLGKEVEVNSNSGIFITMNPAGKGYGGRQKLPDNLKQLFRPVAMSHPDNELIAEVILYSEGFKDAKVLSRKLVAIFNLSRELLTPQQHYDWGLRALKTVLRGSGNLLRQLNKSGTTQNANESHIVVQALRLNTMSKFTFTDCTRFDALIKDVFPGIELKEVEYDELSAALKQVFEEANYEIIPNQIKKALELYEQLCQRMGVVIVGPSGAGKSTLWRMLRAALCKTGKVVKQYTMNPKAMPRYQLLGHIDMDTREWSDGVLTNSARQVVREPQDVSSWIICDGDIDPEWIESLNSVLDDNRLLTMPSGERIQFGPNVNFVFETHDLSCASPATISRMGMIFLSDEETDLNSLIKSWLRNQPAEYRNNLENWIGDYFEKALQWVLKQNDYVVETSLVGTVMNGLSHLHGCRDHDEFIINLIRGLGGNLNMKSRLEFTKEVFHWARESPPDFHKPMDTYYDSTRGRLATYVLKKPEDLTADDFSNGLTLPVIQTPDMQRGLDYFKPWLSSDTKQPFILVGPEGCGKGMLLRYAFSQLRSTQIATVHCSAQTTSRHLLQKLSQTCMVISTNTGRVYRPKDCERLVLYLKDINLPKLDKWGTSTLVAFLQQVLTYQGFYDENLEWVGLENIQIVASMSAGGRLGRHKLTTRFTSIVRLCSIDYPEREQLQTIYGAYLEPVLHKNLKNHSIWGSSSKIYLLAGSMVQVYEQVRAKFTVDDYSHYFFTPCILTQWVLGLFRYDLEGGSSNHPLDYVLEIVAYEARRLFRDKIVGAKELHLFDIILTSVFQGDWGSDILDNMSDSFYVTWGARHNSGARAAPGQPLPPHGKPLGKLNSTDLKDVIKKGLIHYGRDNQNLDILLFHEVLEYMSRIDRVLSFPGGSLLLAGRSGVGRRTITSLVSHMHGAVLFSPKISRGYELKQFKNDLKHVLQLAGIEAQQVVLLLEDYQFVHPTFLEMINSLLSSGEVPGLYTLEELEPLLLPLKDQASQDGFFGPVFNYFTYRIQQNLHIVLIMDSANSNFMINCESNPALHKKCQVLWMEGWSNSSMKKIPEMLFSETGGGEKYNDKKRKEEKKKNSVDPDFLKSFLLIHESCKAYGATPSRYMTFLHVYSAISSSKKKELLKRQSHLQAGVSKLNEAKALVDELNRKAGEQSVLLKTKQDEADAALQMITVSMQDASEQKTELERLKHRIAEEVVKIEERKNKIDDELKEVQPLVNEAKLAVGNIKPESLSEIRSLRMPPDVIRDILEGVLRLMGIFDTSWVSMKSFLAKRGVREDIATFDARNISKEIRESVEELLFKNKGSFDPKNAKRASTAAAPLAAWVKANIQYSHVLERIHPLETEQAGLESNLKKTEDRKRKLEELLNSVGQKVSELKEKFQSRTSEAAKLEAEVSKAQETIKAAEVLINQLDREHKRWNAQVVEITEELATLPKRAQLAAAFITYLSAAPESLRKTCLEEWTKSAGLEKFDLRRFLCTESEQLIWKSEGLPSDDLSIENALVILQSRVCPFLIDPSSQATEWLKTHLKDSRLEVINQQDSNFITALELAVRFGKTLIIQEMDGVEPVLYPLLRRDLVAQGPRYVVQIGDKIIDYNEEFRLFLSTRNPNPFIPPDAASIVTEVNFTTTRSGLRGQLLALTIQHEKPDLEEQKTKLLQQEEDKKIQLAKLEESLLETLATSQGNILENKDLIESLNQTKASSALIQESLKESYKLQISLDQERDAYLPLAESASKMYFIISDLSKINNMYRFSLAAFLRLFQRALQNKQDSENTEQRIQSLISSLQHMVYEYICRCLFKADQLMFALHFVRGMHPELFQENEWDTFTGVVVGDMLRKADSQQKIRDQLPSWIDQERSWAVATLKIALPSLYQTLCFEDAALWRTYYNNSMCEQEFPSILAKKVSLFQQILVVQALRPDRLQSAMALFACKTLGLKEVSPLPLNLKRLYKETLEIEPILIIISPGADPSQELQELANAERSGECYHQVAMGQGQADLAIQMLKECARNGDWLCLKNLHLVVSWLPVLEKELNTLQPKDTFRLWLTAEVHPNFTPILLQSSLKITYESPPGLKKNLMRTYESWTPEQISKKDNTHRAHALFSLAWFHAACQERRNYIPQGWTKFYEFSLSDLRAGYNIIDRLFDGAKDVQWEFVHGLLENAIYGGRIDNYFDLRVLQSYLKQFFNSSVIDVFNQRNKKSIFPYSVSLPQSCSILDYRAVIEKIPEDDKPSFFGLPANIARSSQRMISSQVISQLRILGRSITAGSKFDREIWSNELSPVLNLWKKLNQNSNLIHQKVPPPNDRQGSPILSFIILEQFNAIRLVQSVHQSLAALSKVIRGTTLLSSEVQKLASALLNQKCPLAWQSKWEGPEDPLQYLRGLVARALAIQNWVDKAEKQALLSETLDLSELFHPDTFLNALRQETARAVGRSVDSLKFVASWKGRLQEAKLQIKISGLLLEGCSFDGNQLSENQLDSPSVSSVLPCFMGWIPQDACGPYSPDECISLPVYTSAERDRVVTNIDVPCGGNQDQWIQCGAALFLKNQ
# UniProt P05198: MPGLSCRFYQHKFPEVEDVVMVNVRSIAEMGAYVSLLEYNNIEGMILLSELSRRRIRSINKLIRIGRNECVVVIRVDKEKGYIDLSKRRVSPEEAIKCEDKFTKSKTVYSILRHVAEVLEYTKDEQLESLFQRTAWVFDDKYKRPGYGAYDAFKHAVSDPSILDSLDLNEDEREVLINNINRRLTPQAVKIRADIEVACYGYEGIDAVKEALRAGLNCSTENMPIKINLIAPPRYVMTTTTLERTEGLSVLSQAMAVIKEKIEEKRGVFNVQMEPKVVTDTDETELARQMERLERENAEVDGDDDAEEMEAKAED
# UniProt Q8N5X7: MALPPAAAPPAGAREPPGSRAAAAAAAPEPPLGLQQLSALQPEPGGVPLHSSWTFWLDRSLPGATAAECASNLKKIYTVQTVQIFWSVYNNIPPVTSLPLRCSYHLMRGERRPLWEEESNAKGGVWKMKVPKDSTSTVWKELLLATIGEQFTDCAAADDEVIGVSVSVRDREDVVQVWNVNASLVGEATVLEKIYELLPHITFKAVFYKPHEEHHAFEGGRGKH
# UniProt P23919: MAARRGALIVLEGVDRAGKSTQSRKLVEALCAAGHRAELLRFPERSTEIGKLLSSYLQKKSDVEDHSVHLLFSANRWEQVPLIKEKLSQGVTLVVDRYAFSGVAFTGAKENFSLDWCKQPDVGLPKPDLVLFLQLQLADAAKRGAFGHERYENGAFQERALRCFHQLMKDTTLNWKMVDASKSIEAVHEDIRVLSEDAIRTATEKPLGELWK
# This is one part of the list. The data scatter; read single values as rough.
# Compound: ClCC(=O)N[C@H]1CCCc2ccccc12
# Experiment: log2 mean competition ratio of IA-DTB cysteine labelling (DMSO/compound) (log2 ratio); higher = stronger cysteine engagement by compound
# Details: 50 µM; treatment time: 4 h; cell line lysate: HEK293T
# Procedure: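 IA-DTB competitive cysteine chemoproteomics in HEK293T RIPA lysate. Lysates were treated with compound 29 or 30 at 50 or 200 µM for 4 h, then IA-DTB (500 µM, 1 h), trypsin-digested, NeutrAvidin-enriched and analysed by diaPASEF. Competition ratio = intensity DMSO / intensity compound (n=4 treated, n=64 DMSO); binding: mean log2 CR ≥ 1 and p ≤ 0.05 plus QC filters. Target is the cysteine site.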
row,Target,log2 mean competition ratio
1,DSC2 C266 (UniProt Q02487),-0.0256
2,EIF4G1 C919 (UniProt Q04637),-0.314
3,EEFSEC C289 (UniProt P57772),-0.242
4,EIF2S3 C105 (UniProt P41091),0.322
5,EFCAB7 C174 (UniProt A8K855),-0.346
6,DYNC2H1 C3277 (UniProt Q8NCM8),0.138
7,EIF2B3 C379 (UniProt Q9NR50),0.123
8,DYNC1H1 C3712 (UniProt Q14204),-0.275
9,EHBP1 C849 (UniProt Q8NDI1),0.705
10,ELL C411 (UniProt P55199),0.868
11,EHBP1L1 C422 (UniProt Q8N3D4),0.0214
12,DYNC1H1 C4438 (UniProt Q14204),-0.312
13,EGLN1 C201 (UniProt Q9GZT9),0.0964
14,DST C5922 (UniProt Q03001),0.00471
15,EFTUD2 C166 (UniProt Q15029),-0.224
16,DYNC2H1 C3245 (UniProt Q8NCM8),0.369
17,DSP C1148 (UniProt P15924),-0.111
18,DST C3653 (UniProt Q03001),0.309
19,EED C254,-0.0541

row,Target,log2 mean competition ratio
1,EIF3I C144,-0.198
2,EIF2S1 C199 (UniProt P05198),0.613
3,DYNC1H1 C978 (UniProt Q14204),0.362
4,EIF5B C1158 (UniProt O60841),0.22
5,ELAC2 C609 (UniProt Q9BQ52),0.355
6,DST C4370 (UniProt Q03001),-0.165
7,EEFSEC C406 (UniProt P57772),0.00755
8,EIF4E3 C69 (UniProt Q8N5X7),-0.458
9,DYNC2H1 C2295 (UniProt Q8NCM8),-0.0277
10,EFHD2 C172 (UniProt Q96C19),0.521
11,EFTUD2 C780 (UniProt Q15029),-0.433
12,DTL C136 (UniProt Q9NZJ0),0.488
13,DYNC1H1 C2639 (UniProt Q14204),0.0211
14,DSC2 C841 (UniProt Q02487),-0.25
15,EIF4G3 C1411,0.15
16,DTYMK C31 (UniProt P23919),0.374
17,DTX3L C250 (UniProt Q8TDB6),-0.262
18,EIF3I C76,-0.118

# Same assay, conditions: 200 µM; treatment time: 4 h; cell line lysate: HEK293T
row,Target,log2 mean competition ratio
1,DSC2 C266 (UniProt Q02487),-0.0699
2,EIF4G1 C919 (UniProt Q04637),-0.201
3,EEFSEC C289 (UniProt P57772),0.199
4,EIF2S3 C105 (UniProt P41091),0.0703
5,EFCAB7 C174 (UniProt A8K855),0.1
6,DYNC2H1 C3277 (UniProt Q8NCM8),0.0825
7,EIF2B3 C379 (UniProt Q9NR50),-0.0529
8,DYNC1H1 C3712 (UniProt Q14204),0.104
9,EHBP1 C849 (UniProt Q8NDI1),-0.0995
10,ELL C411 (UniProt P55199),-0.0164
11,EHBP1L1 C422 (UniProt Q8N3D4),-0.152
12,DYNC1H1 C4438 (UniProt Q14204),0.216
13,EGLN1 C201 (UniProt Q9GZT9),-0.107
14,DST C5922 (UniProt Q03001),0.129
15,EFTUD2 C166 (UniProt Q15029),-0.0844
16,DYNC2H1 C3245 (UniProt Q8NCM8),0.0665
17,DSP C1148 (UniProt P15924),0.229
18,DST C3653 (UniProt Q03001),-0.154
19,EED C254,0.0908

row,Target,log2 mean competition ratio
1,EIF3I C144,0.188
2,EIF2S1 C199 (UniProt P05198),-0.237
3,DYNC1H1 C978 (UniProt Q14204),0.212
4,EIF5B C1158 (UniProt O60841),0.00544
5,ELAC2 C609 (UniProt Q9BQ52),-0.173
6,DST C4370 (UniProt Q03001),-0.224
7,EEFSEC C406 (UniProt P57772),0.128
8,EIF4E3 C69 (UniProt Q8N5X7),-0.289
9,DYNC2H1 C2295 (UniProt Q8NCM8),0.208
10,EFHD2 C172 (UniProt Q96C19),-0.229
11,EFTUD2 C780 (UniProt Q15029),0.297
12,DTL C136 (UniProt Q9NZJ0),-0.142
13,DYNC1H1 C2639 (UniProt Q14204),-0.148
14,DSC2 C841 (UniProt Q02487),-0.0835
15,EIF4G3 C1411,-0.235
16,DTYMK C31 (UniProt P23919),-0.189
17,DTX3L C250 (UniProt Q8TDB6),-0.043
18,EIF3I C76,0.0782
